Record: PubChem BioAssay AID504784 (Drosophila RNAi Screening Center, 2011)
Aim: 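Genome-wide knock-down for genes giving too much or too little stored lipid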 (primary screen). System: Drosophila Kc167 embryonic cells. Reagents: long dsRNA against Drosophila genes, about 250 ng dsRNA per well. Timing: 4 days. Conditions: cells fed 400 µM oleic acid bound to BSA. Detection: 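Microscope images give a droplet-to-nucleus area ratio, taken as log and converted to a screen-wide B-score; higher values mean greater lipid storage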. Direction: droplet/nuclear area B-score: higher = more stored lipid (overstorage).
The screen tested about 17,000 reagents; shown is a random part of those with a known target gene and a result. 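Each column is one replicate's B-score; the combined score over replicates was not deposited, so single values may mislead.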 Further read-outs or replicates are left out here. Reagent sequences are not shown.

Depletion of inaF-B [DRSC18903] gave: droplet/nuclear area B-score, replicate 1 = -1.21.
After knock-down of Gr66a [DRSC10783], the record shows droplet/nuclear area B-score, replicate 1 = -0.263.
CG32112 [DRSC09815] gave droplet/nuclear area B-score, replicate 1 = -1.72.
Against Cpr64Ad [DRSC08284] the deposit lists droplet/nuclear area B-score, replicate 1 = -1.47.
SMC6 [DRSC15829] scored droplet/nuclear area B-score, replicate 1 = -0.114.
After knock-down of Pngl [DRSC04914] the results were droplet/nuclear area B-score, replicate 1 = 0.408.
After knock-down of CG13607 [DRSC14610], the record shows droplet/nuclear area B-score, replicate 1 = 7.01.
After knock-down of CG4757 [DRSC14130] the results were droplet/nuclear area B-score, replicate 1 = -1.28.
With knock-down of brun [DRSC02706], the screen gave droplet/nuclear area B-score, replicate 1 = -1.45.
With knock-down of CG9393 [DRSC16486], the record shows droplet/nuclear area B-score, replicate 1 = 0.617.
CG9517 (retired record) [DRSC20192] gave droplet/nuclear area B-score, replicate 1 = -0.00481.
With knock-down of CG9517 (retired record) [DRSC20193] the results were droplet/nuclear area B-score, replicate 1 = -2.48.
Depletion of cona [DRSC16281] gave: droplet/nuclear area B-score, replicate 1 = 1.44.
Silencing of CG18808 [DRSC08539] resulted in: droplet/nuclear area B-score, replicate 1 = 0.69.
CG10185 [DRSC14205] scored droplet/nuclear area B-score, replicate 1 = 0.408.
Cenp-C [DRSC14371] showed droplet/nuclear area B-score, replicate 1 = 2.86.
Knock-down of Nf-YA [DRSC10385] gave: droplet/nuclear area B-score, replicate 1 = -0.296.
For Nf-YA [DRSC23126], the entry reads droplet/nuclear area B-score, replicate 1 = 0.378.
Against janA [DRSC16972] the deposit lists droplet/nuclear area B-score, replicate 1 = -1.9.
After knock-down of babo [DRSC07581], the screen gave droplet/nuclear area B-score, replicate 1 = -0.227.
Silencing of oc [DRSC18808] came out at: droplet/nuclear area B-score, replicate 1 = -1.72.
CG8249 [DRSC07125] gave droplet/nuclear area B-score, replicate 1 = -1.47.
Knock-down of Sting [DRSC06615] came out at: droplet/nuclear area B-score, replicate 1 = -0.0425.
Depletion of Listericin [DRSC07334] resulted in: droplet/nuclear area B-score, replicate 1 = 0.354.
Polr3A [DRSC19766] showed droplet/nuclear area B-score, replicate 1 = 0.052.
ppk8 [DRSC17269] scored droplet/nuclear area B-score, replicate 1 = -0.848.
CG32196 [DRSC09548] gave droplet/nuclear area B-score, replicate 1 = 0.191.
Sgs8 [DRSC11282] gave droplet/nuclear area B-score, replicate 1 = -0.029.
CG7320 [DRSC10810] scored droplet/nuclear area B-score, replicate 1 = -0.754.
With knock-down of Uck [DRSC16028], the record shows droplet/nuclear area B-score, replicate 1 = -0.0202.
With knock-down of CG9395 [DRSC03218], the record shows droplet/nuclear area B-score, replicate 1 = -3.54.
CG1647 [DRSC15134] gave droplet/nuclear area B-score, replicate 1 = 0.451.
For Vdup1 [DRSC08586] the deposit lists droplet/nuclear area B-score, replicate 1 = -0.627.
Against rec [DRSC14998], the values are droplet/nuclear area B-score, replicate 1 = -1.17.
After knock-down of rec [DRSC15656], the record shows droplet/nuclear area B-score, replicate 1 = -0.115.
For CG13204 [DRSC06328], the entry reads droplet/nuclear area B-score, replicate 1 = -1.06.
After knock-down of pum [DRSC12726] the results were droplet/nuclear area B-score, replicate 1 = 1.05.
Depletion of pum [DRSC17037] came out at: droplet/nuclear area B-score, replicate 1 = 0.757.
pum [DRSC17038] showed droplet/nuclear area B-score, replicate 1 = 0.876.
With knock-down of pum [DRSC22758] the results were droplet/nuclear area B-score, replicate 1 = 0.975.
Against pum [DRSC22794] the deposit lists droplet/nuclear area B-score, replicate 1 = 0.947.

3 entries from above, reformatted.
gene knocked down	amplicon	droplet/nuclear area B-score, replicate 1
pum	DRSC17038	0.876
pum	DRSC22758	0.975
pum	DRSC22794	0.947
